Hit rate of the full screen: of about 3,000 compounds, about 45 (2%) showed an effect of 50% or more. The list shows a part of the results.
test system: MOLM1 and UCSD/AML1 (averaged); experiment: cell viability relative to DMSO control (POC); higher = less growth inhibition; details: 1 µM; 72 h
Experimental: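 Primary viability screen in the 3q26 EVI1-high AML cell lines MOLM1 and UCSD/AML1, compounds at 1 uM for 72 h. ATP CellTiter-Glo read-out given as percent viable over DMSO control (POC), averaged over duplicates. This mapping covers the TimTec NDL-3000 natural derivative library, whose compounds are identified by TimTec catalogue codes (ST...).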

First: COc1cc(C(=O)O)ccc1O
Second: COc1cc(CCC(=O)O)ccc1O
The cell viability of the first is lower: 94.3% for the first, 98% for the second.

First: Cc1cc(=O)oc2c1ccc1occ(Nc3cccc([N+](=O)[O-])c3)c12
Second: Cc1cc(=O)oc2c(C)c(O)ccc12
The cell viability of the first is higher: 105% for the first, 97.2% for the second.

First: CCCc1[nH]nc2c1C(c1ccc(OC)c(O)c1)C(C#N)=C(N)O2 (configuration not stated)
Second: CCc1ccc(C2C(C#N)=C(N)Oc3cc(O)ccc32)cc1 (configuration not stated)
The cell viability of the first is lower: 100% for the first, 110% for the second.

Compared with `COC(=O)C(N)c1ccccc1` (configuration not stated), `O=C(O)C(O)Cc1ccccc1` (configuration not stated) is higher in cell viability: 90.7% for the first, 104% for the second.

First: Cc1ccc(-n2c(SCc3nc(-c4cccs4)oc3C)nc3c(=O)[nH]cnc32)cc1
Second: Cc1cccc(-c2nc(CSc3nc4c(=O)[nH]cnc4n3-c3ccccc3)c(C)o2)c1
The cell viability of the first is lower: 93.2% for the first, 99.7% for the second.

Compared with `CCN(CC)C(=O)c1cc(=O)n(CC(=O)Nc2ccc3c(c2)OCO3)c2ccccc12`, `CCN(CC)C(=O)c1cc(=O)n(CC(=O)Nc2ccc(Cl)cc2)c2ccccc12` is lower in cell viability: 103% for the first, 98% for the second.

`COc1cc(C2C(C(=O)OC(C)C)=C(C)NC3=C2C(=O)CCC3)cc(Br)c1O` (configuration not stated) and `CCCC1=C(C(=O)OCC)C(c2cc(Br)c(O)c(OC)c2)NC(=O)N1` (configuration not stated) are the same in cell viability: 113% for the first, 113% for the second.

Going from `COC(=O)CN1C(=O)C2(C(C#N)=C(N)Oc3c2c(=O)oc2ccccc32)c2ccccc21` (configuration not stated) to `Cc1cc(C(=O)c2ccccc2)ccc1OC(=O)CN1C(=O)c2ccccc2C1=O`, the cell viability falls from 102% to 94.9%.

Compared with `CCOc1ccc(C2NCCc3c2[nH]c2ccccc32)cc1` (configuration not stated), `COc1cc(C2NC(C(=O)O)Cc3c2[nH]c2ccccc32)cc(OC)c1OC` (configuration not stated) is lower in cell viability: 92.7% for the first, 92.2% for the second.

Going from `CCCCOc1ccc(C2=NOC(=O)/C2=C\c2ccc(OCC)cc2O)cc1` to `CCCCCCCCCC(=O)Oc1c(-c2ccc(OC)cc2)oc2ccccc2c1=O`, the cell viability falls from 104% to 102%.

First: COC(=O)c1cc(OC)c(OC)c(OC)c1NS(=O)(=O)c1ccc2oc3ccccc3c2c1
Second: COC(=O)C1=CN(Cc2ccccc2)C=C(C(=O)OC)C1c1cc(OC)c(OC)c(OC)c1
The cell viability of the first is higher: 102% for the first, 92.4% for the second.

Going from `COCCN1C(=O)/C(=C\c2cc(OC)c(OC)c(OC)c2)C(C(=O)OC)=C1C` to `COc1cc(C(=O)Nc2cc(C)c(OCC(=O)N3CCOCC3)c(C)c2)cc(OC)c1OC`, the cell viability falls from 101% to 99.9%.

First: CCOc1ccc(C(=O)NC(CC(=O)O)c2ccc(Cl)cc2)cc1OCC (configuration not stated)
Second: COc1cc(C(C)=O)ccc1OCc1ccccc1Cl
The cell viability of the first is higher: 100% for the first, 99.7% for the second.

First: CCn1c(SCc2nc(-c3ccccc3C)oc2C)nc2c(=O)[nH]cnc21
Second: CCn1c(SCC(=O)Nc2ccc(F)c(Cl)c2)nc2c(=O)[nH]cnc21
The cell viability of the first is lower: 95.1% for the first, 104% for the second.

Going from `COc1ccc(CN)cc1O` to `COc1cc(C(=O)OCc2ccc(F)cc2)c(Br)c(OC)c1OC`, the cell viability falls from 107% to 101%.

Compared with `Cc1cc2c(c(O)c1-c1c(C)cc3c(c1O)/C(=C/Nc1ccc(N=Nc4ccccc4)cc1)C(=O)C(O)=C3C(C)C)/C(=C/Nc1ccc(N=Nc3ccccc3)cc1)C(=O)C(O)=C2C(C)C`, `Cc1cc2c(c(O)c1-c1c(C)cc3c(c1O)/C(=C/Nc1ccccc1O)C(=O)C(O)=C3C(C)C)/C(=C/Nc1ccccc1O)C(=O)C(O)=C2C(C)C` is higher in cell viability: 106% for the first, 107% for the second.

Going from `Cc1ccc(C(=O)COc2cc(OCC(=O)c3ccc(C)cc3)c3c(C)cc(=O)oc3c2)cc1` to `COc1ccc2c(c1)c(CC(=O)NCCOc1c(C)cccc1C)c(C)n2C(=O)c1ccc(Cl)cc1`, the cell viability falls from 96.6% to 86.2%.

Going from `O=C(Cn1c(=O)cc(C(=O)NCc2ccccc2)c2ccccc21)Nc1ccc(F)cc1` to `CNC(=O)c1cc(=O)n(CC(=O)Nc2ccc(Br)cc2)c2ccccc12`, the cell viability falls from 97.9% to 92.6%.

Compared with `Cc1c(CC(=O)NCCc2ccccc2)c(=O)oc2cc(O)ccc12`, `Cc1c(-c2ccccc2Cl)c(=O)oc2cc(O)ccc12` is lower in cell viability: 98.8% for the first, 92.8% for the second.

Going from `O=C(CCNc1ccc(Oc2ccc(Cl)cc2)cc1)c1ccc2c(c1)OCO2` to `O=C(CC(Nc1ccc(I)cc1)c1ccccc1)c1ccc2c(c1)OCO2` (configuration not stated), the cell viability falls from 96.8% to 95.7%.

Going from `CCCc1cc(=O)[nH]c(SCC(=O)Nc2c(-c3ccccc3)nc3ccccn23)n1` to `COC(=O)c1ccccc1NC(=O)CSc1nc2c(=O)[nH]cnc2n1-c1ccccc1`, the cell viability falls from 101% to 86.4%.

Compared with `O=C(/C=C/c1ccc(O)cc1)c1cc(O)ccc1O`, `O=C(COc1ccc(Cl)cc1)c1ccc(O)cc1O` is lower in cell viability: 108% for the first, 90.8% for the second.

Compared with `O=C(NCc1ccc2c(c1)OCO2)C12CC3CC(C1)CC(n1cncn1)(C3)C2`, `COCc1nnc(SCC(=O)c2ccc3c(c2)OCO3)n1-c1ccccc1` is higher in cell viability: 90.3% for the first, 106% for the second.

First: COc1cc2ccc(=O)oc2c(OC2OC(CO)C(O)C(O)C2O)c1O (configuration not stated)
Second: COc1cccc(-c2oc3ccc(OC)cc3c(=O)c2O)c1
The cell viability of the first is higher: 116% for the first, 85.1% for the second.

Compared with `COc1ccc(C(=O)n2nc(C)cc2C)cc1OC`, `COc1ccc(C(=O)Nc2ccc3c(c2)CCCN3C(=O)C(C)(C)C)cc1OC` is higher in cell viability: 89.9% for the first, 96.1% for the second.

First: COc1ccc(/C=C2\Oc3cc(OCC(N)=O)ccc3C2=O)cc1OC
Second: COC(=O)c1ccc(NC(=O)/C=C/c2ccc(OC)c(OC)c2)cc1
The cell viability of the first is higher: 95.8% for the first, 94.8% for the second.

Compared with `Cc1[nH]c2ccccc2c1CCNC(=O)NC(=O)c1cccc(Cl)c1`, `Cc1[nH]c2ccc(OC(F)(F)F)cc2c1CCNC(=O)C1CC=CCC1C(=O)O` (configuration not stated) is higher in cell viability: 96.5% for the first, 97.6% for the second.

Compared with `COc1cccc(NC(=O)Cn2c(=O)cc(C(=O)N3CCCC3)c3ccccc32)c1`, `O=C(Cn1c(=O)cc(C(=O)N2CCOCC2)c2ccccc21)Nc1cccc(C(F)(F)F)c1` is lower in cell viability: 102% for the first, 86.9% for the second.

Going from `COc1cc(OC)cc(C(=O)N2CCN(C(=O)c3ccccc3)CC2)c1` to `COc1cc(OC)cc(C(=O)NCCCn2c3ccccc3c3ccccc32)c1`, the cell viability falls from 102% to 100%.

First: O=C(NCc1ccco1)c1cc2ccccc2oc1=O
Second: CCOc1ccccc1C(=O)NCN1CCc2ccccc2C1
The cell viability of the first is lower: 98.8% for the first, 106% for the second.

First: COc1cc(C(=O)NCCC2CCCC2)cc(OC)c1OC
Second: COc1cc(C2C3CCCCC3(O)CCN2CC(=O)Nc2ccc(C)cc2)cc(OC)c1OC (configuration not stated)
The cell viability of the first is higher: 106% for the first, 90.8% for the second.

Compared with `O=C(O)C(Cc1ccccc1)n1cccc1` (configuration not stated), `Cc1ccc(NC(=O)CSc2nc3c(=O)[nH]cnc3n2-c2ccccc2)cc1F` is higher in cell viability: 102% for the first, 103% for the second.

First: CC1(C(=O)O)CCC2(C)CCC3(C)C(=CC(=O)C4C5(C)CCC(OC6OC(C(=O)O)C(O)C(O)C6OC6OC(C(=O)O)C(O)C(O)C6O)CC5CCC43C)C2C1.CC1(C(=O)O)CCC2(C)CCC3(C)C(=CC(=O)C4C5(C)CCC(OC6OC(C(=O)O)C(O)C(O)C6OC6OC(C(=O)O)C(O)C(O)C6O)CC5CCC43C)C2C1.NCCCN.NCCCN.[Co] (configuration not stated)
Second: CCN(CC)CCOC(=O)C1(C)CCC2(C)CCC3(C)C(=CC(=O)C4C5(C)CCC(OC(C)=O)C(C)(C)C5CCC43C)C2C1 (configuration not stated)
The cell viability of the first is higher: 94.1% for the first, 85.1% for the second.

Compared with `CCOc1ccc2oc(=O)cc(CN3CCN(CC(=O)Nc4ccc(F)cc4)CC3)c2c1`, `COc1ccc(C(=O)NCN2CCN(c3cccc(Cl)c3)CC2)cc1OC` is lower in cell viability: 100% for the first, 92.4% for the second.

First: CCOC(=O)c1ccc(NC(=O)CCC(=O)O)cc1
Second: COc1ccc(C(=O)NC(CC(C)C)C(=O)O)cc1 (configuration not stated)
The cell viability of the first is higher: 105% for the first, 100% for the second.

First: Cn1c2c(c(=O)n(C)c1=O)C(=O)C(=O)N(Cc1ccccc1)C2=O
Second: Cc1cc(C)c2c(O)c(-c3ccccc3)c(=O)[nH]c2c1
The cell viability of the first is lower: 97.6% for the first, 103% for the second.

Going from `CCOC(=O)N1CCc2[nH]c3ccc(C)cc3c2C1` to `Cc1ccc(-n2c(SCC(=O)N3CCOc4ccc(C)cc43)nc3c(=O)[nH]cnc32)cc1`, the cell viability rises from 42.4% to 88.2%.

Going from `COc1cc(C)c(C)cc1S(=O)(=O)NCCc1c(C)[nH]c2ccc(F)cc12` to `CCOC(=O)c1c(CNc2cccc(Cl)c2)n(-c2ccccc2)c2cc(Br)c(OC)cc12`, the cell viability rises from 92.9% to 109%.

First: Cc1ccc(O)c(N=Cc2c(O)c(O)c(C(C)C)c3cc(C)c(-c4c(C)cc5c(C(C)C)c(O)c(O)c(C=Nc6cc(C)ccc6O)c5c4O)c(O)c23)c1
Second: Cc1cc2c(C(C)C)c(O)c(O)c(C=NC3CCCCC3Cc3ccco3)c2c(O)c1-c1c(C)cc2c(C(C)C)c(O)c(O)c(C=NC3CCCCC3Cc3ccco3)c2c1O (configuration not stated)
The cell viability of the first is higher: 109% for the first, 94.9% for the second.

Compared with `COc1cc(C=O)ccc1OCC(=O)N1CCCCC1`, `COC(=O)/C(C#N)=C\c1ccc(OC(C)=O)c(OC)c1` is higher in cell viability: 101% for the first, 102% for the second.

First: CCOC(=O)C1=C(N)Oc2c(oc(CO)cc2=O)C1c1ccccc1[N+](=O)[O-] (configuration not stated)
Second: CC(NC(=O)Nc1ccccc1[N+](=O)[O-])C(=O)O (configuration not stated)
The cell viability of the first is lower: 94.8% for the first, 104% for the second.

First: O=C1/C(=C\c2ccc(O)cc2)N=C(c2ccccc2)N1Nc1nc(Nc2ccc([N+](=O)[O-])cc2O)nc(Nc2ccc([N+](=O)[O-])cc2O)n1
Second: COc1ccc(/C=C/C(=O)c2ccccc2)cc1COc1ccc(NC(C)=O)cc1
The cell viability of the first is higher: 74.5% for the first, 40% for the second.

First: CNC(=O)c1cc(OC)c(OC)c(OC)c1[N+](=O)[O-]
Second: CC(=O)Oc1cc(OC(C)=O)c2c(c1)O[C@H](c1ccccc1)CC2=O
The cell viability of the first is higher: 103% for the first, 88.6% for the second.

First: O=C(OCC1CCCN2CCCCC12)c1ccccc1O (configuration not stated)
Second: CC1CC[C@@H](C(C)(C)c2ccccc2)C(O)C1 (some centres not stated)
The cell viability of the first is lower: 96.9% for the first, 101% for the second.

Going from `COc1ccc(/C=C/C(=O)Nc2ccc(NC(C)=O)cc2)cc1` to `CCOc1ccccc1NC(=O)CSc1nc2c(=O)[nH]cnc2n1-c1ccc(C)cc1`, the cell viability rises from 98.9% to 103%.

First: Cc1c(Cl)cccc1NC(=O)CSc1nc2c(=O)[nH]cnc2n1C
Second: Cn1c(SCc2c(F)cccc2Cl)nc2c(=O)[nH]cnc21
The cell viability of the first is higher: 97.1% for the first, 93.4% for the second.

Compared with `O=C(OC1C(COC(=O)c2ccc(Cl)cc2Cl)OC(n2ccc(=O)n(C(=O)c3ccc(Cl)cc3Cl)c2=O)C1OC(=O)c1ccccc1)c1ccccc1` (configuration not stated), `CCOc1cc(C2C(C(=O)OCCc3ccccc3)=C(C)NC3=C2C(=O)CC(c2ccc(Cl)cc2)C3)ccc1O` (configuration not stated) is higher in cell viability: 94.8% for the first, 99.9% for the second.

First: C=CC[C@H]1Cc2c(Br)cc(Br)c(Br)c2[C@H](CC=C)N1
Second: O=C(c1cnn2c(C(F)(F)F)cc(-c3ccc(Br)cc3)nc12)N1CCc2ccccc2C1
The cell viability of the first is lower: 95.9% for the first, 102% for the second.

In the case of `N=C(N=C(N)N)N1CCSCC1`, the cell viability is reported as 100%.

Source: the supplement of paper PMC11150407
